The results in this text go back to PMC3637639.

The chains behind the UniProt entries cited, without tags or fusion partners. Residues count along the entry.
UniProt Q9ERK7: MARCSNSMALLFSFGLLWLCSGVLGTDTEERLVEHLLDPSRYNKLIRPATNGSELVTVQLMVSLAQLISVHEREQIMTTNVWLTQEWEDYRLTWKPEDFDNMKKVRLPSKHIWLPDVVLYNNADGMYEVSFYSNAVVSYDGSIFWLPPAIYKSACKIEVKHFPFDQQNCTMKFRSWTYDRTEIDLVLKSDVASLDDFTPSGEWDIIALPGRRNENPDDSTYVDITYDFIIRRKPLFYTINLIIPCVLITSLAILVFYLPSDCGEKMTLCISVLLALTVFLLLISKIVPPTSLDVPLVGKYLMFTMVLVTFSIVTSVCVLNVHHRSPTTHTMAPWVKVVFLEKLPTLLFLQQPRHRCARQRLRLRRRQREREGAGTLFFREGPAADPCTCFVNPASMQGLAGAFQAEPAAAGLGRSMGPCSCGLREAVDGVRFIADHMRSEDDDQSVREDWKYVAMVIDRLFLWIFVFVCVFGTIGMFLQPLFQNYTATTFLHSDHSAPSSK
UniProt P49582, residues 23-502: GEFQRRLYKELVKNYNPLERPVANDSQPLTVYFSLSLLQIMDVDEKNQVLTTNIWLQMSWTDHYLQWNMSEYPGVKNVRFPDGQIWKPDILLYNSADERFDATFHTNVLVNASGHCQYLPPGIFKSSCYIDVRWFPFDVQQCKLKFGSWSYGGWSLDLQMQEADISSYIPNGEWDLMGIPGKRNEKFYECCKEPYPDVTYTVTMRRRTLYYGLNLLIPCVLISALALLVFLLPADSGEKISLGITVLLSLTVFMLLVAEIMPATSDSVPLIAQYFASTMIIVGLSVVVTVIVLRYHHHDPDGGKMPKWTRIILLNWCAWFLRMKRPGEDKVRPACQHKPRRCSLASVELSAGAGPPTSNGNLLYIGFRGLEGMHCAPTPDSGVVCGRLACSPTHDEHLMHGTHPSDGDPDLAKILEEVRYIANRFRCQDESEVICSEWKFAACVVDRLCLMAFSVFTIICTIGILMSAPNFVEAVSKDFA
UniProt O70174, residues 31-629: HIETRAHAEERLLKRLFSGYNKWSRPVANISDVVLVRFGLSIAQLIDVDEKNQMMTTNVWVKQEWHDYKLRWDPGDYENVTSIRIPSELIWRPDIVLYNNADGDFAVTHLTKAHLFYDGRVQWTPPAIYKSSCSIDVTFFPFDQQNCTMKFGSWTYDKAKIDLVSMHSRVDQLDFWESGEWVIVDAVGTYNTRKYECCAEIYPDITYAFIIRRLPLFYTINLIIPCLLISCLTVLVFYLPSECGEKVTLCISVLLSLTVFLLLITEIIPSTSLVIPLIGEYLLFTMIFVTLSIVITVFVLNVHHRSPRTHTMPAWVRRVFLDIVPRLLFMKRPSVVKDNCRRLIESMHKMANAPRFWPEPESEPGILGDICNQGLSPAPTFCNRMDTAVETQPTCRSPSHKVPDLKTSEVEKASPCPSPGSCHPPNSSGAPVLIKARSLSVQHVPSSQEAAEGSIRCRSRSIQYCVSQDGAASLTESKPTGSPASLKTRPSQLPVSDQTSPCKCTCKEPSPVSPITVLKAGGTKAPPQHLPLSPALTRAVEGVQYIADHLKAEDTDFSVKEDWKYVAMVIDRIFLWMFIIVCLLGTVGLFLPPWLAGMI

Holding throughout (experiment): FRET or BRET; sensitized acceptor emission FRET (pixel- or ROI-based, PixFRET) between channel subunits tagged with donor (CFP/Cerulean) and acceptor (YFP/Venus), equimolar cDNAs co-transfected in living HEK293T cells, imaged 2 days after transfection in ECS pH 7.4 at 30°C; with or without untagged RIC-3 (0:1 to 5:1 cDNA ratio); in some experiments nicotine (0.1, 1 or 10 μM) for 30 min at 37°C before imaging
In general terms: In BRET a luciferase serves as donor, and the signal depends on an acceptor being close.

The target in assay [1] is β2CFP nAChR subunit (mouse) (UniProt Q9ERK7).
The target of assay [2] is α7-Venus nAChR subunit (mouse) (UniProt P49582).
Assay [3] concerns the target T1, GluClβ-YFP (glutamate-gated chloride channel β subunit tagged with YFP) (UniProt Q17328).
T1 sequence: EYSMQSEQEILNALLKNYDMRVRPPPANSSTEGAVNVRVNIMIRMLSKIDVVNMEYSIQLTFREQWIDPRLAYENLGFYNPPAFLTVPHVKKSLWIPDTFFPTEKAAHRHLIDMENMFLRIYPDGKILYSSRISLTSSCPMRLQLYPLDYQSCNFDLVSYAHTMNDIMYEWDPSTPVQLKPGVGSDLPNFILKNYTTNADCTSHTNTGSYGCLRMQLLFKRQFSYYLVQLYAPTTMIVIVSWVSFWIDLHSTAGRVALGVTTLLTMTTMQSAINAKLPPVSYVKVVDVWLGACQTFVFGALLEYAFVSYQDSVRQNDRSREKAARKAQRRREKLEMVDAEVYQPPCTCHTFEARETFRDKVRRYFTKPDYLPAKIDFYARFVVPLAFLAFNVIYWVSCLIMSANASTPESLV

No constants are given. Whether binding was seen depends on the method and setting. In cells and extracts the contact can be indirect. Some binding calls cover weakened binding; strength is not graded here. For part of these data: Tags and fused reporters may be left off the sequences shown.

“α4YFP nAChR subunit (from UniProt O70174 31-629) (receptor)”: the binding entry in assay [1] is listed as “binds”.

In the case of “α7-Cerulean nAChR subunit (from UniProt P49582 23-502) (receptor)”, in assay [2], the binding result is on record as “binds”.

B1: GluClα-CFP (glutamate-gated chloride channel α subunit tagged with CFP) (receptor, UniProt G5EBR3 21-461)
chain: QQARTKSQDIFEDDNDNGTTTLESLARLTSPIHIPIEQPQTSDSKILAHLFTSGYDFRVRPPTDNGGPVVVSVNMLLRTISKIDVVNMEYSAQLTLRESWIDKRLSYGVKGDGQPDFVILTVGHQIWMPDTFFPNEKQAYKHTIDKPNVLIRIHNDGTVLYSVRISLVLSCPMYLQYYPMDVQQCSIDLASYAYTTKDIEYLWKEHSPLQLKVGLSSSLPSFQLTNTSTTYCTSVTNTGIYSCLRTTIQLKREFSFYLLQLYIPSCMLVIVSWVSFWFDRTAIPARVTLGVTTLLTMTAQSAGINSQLPPVSYIKAIDVWIGACMTFIFCALLEFALVNHIANKQGVERKARTEREKAEIPLLQNLHNDVPTKVFNQEEKVRTVPLNRRQMNSFLNLLETKTEWNDISKRVDLISRALFPVLFFVFNILYWSRFGQQNVLF
Regarding B1, the binding result in assay [3] was “binds”.
